# Measured values published in the supplement of paper PMC9135407.
# Where “and” joins values, the source holds several entries; their conditions need not be identical. Equal entries are not always repeated. Structures can show the parent of a compound that is named as a salt. ± gives the standard deviation of the averaged measurements. The list shows a part of the results. Plates or batches differ in their baseline, so values are only roughly comparable.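 Assay uses culture-activated primary human stellate myofibroblasts; lipid droplet recovery indicates inactivation. Measured: proportion of Hoechst-counted cells over a plate-specific Bodipy cutoff, duplicate wells, DMSO and nortriptyline as per-plate negative and positive controls. A hit scores, control-normalized, above the plate's top-tenth-percentile nortriptyline wells or ranks among its three best wells. Final well concentrations not reported.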
# Tested on: primary human hepatic stellate cells (donor 1)
# Test: percent Bodipy-positive cells; higher = more lipid droplet accumulation
# Settings: 48 h
# [1] = library stock concentration: 10 mM
# [2] = library stock concentration: 3.33 mM
# [3] = library stock concentration: 1 mM
# [4] = library stock concentration: 5.1 mM
smiles,measurement,setting,value
O=C(OCc1ccccc1)c1ccccc1 [Benzyl benzoate],percent Bodipy-positive cells,library stock concentration: 9.4 mM,22.7 ± 3.6%
same,percent Bodipy-positive cells,[1],14.9 ± 2.7%
N#C/C(=C\c1ccc(O)c(O)c1)C(=O)NCCCNC(=O)/C(C#N)=C/c1ccc(O)c(O)c1 [Tyrphostin AG 537],percent Bodipy-positive cells,[1],13.2 ± 10%
C(=C/CCNC)(/c1c(cccc1)CC2)\c3c2cccc3 [Nortriptyline],percent Bodipy-positive cells,library stock concentration: 7.6 mM,71.7 ± 20%
OC[C@H]1NC[C@@H](O)[C@@H](O)[C@@H]1O [1-Deoxymannojirimycin hydrochloride],percent Bodipy-positive cells,[1],7.44 ± 0.65%
same,percent Bodipy-positive cells,library stock concentration: 25.1 mM,16.8 ± 3.8%
CCCc1nc(C(C)(C)O)c(C(=O)O)n1Cc1ccc(-c2ccccc2-c2nnn[nH]2)cc1 [Olmesartan],percent Bodipy-positive cells,library stock concentration: 3.6 mM,13.6 ± 2.2%
CN(C)CCOC(=O)COc1ccc(Cl)cc1 [Meclofenoxate (Centrophenoxine) HCl],percent Bodipy-positive cells,[2],14.9 ± 3%
same,percent Bodipy-positive cells,[1],19.6 ± 4.3%
CN(C)CCOC(=O)COc1ccc(Cl)cc1 [Meclofenoxate hydrochloride],percent Bodipy-positive cells,,10.2 ± 5.1%
same,percent Bodipy-positive cells,[1],33.9 ± 11%
CN(C)CCOC(=O)COc1ccc(Cl)cc1 [Centrophenoxine hydrochloride],percent Bodipy-positive cells,[1],31.3 ± 6.8%
"Brc1c(NC2=NCCN2)ccc2nccnc12 [UK 14,304 tartrate]",percent Bodipy-positive cells,[1],7.62 ± 1.4%
Brc1c(NC2=NCCN2)ccc2nccnc12 [Brimonidine Tartrate],percent Bodipy-positive cells,[2],9.64 ± 2.2%
same,percent Bodipy-positive cells,[1],28.4 ± 4.2%
Brc1c(NC2=NCCN2)ccc2nccnc12,percent Bodipy-positive cells,[1],18.2% and 5.48%
CSc1nc(-c2ccnc(NC(C)c3ccccc3)c2)c(-c2ccc(F)cc2)[nH]1 (configuration not stated) [p38 MAP Kinase Inhibitor III],percent Bodipy-positive cells,[2],17.6 ± 0.19%
CCCCCCCCCCCCCCCC(=O)NCCc1ccc(O)c(O)c1 [N-Palmitoyl Dopamine],percent Bodipy-positive cells,[3],7.81 ± 3.4%
CC(N)C12CC3CC(CC(C3)C1)C2 (configuration not stated) [Rimantadine],percent Bodipy-positive cells,[2],13.3 ± 5.9%
same,percent Bodipy-positive cells,[1],41.6 ± 0.47%
CC(N)C12CC3CC(CC(C3)C1)C2 (configuration not stated) [Rimantadine hydrochloride],percent Bodipy-positive cells,library stock concentration: 9.3 mM,52.89 ± 0.49%
CS(=O)(=O)Nc1ccc([N+](=O)[O-])cc1OC1CCCCC1,percent Bodipy-positive cells,[3],8.08 ± 1.1%
COC(=O)C(N)CS (configuration not stated) [Mecysteine hydrochloride],percent Bodipy-positive cells,[1],17.6 ± 8.7%
COc1cc(Nc2ncc(F)c(Nc3ccc4c(n3)NC(=O)C(C)(C)O4)n2)cc(OC)c1OC [R406 (free base)],percent Bodipy-positive cells,[2],68.78 ± 0.6%
same,percent Bodipy-positive cells,[1],90.4 ± 5.2%
C[C@H]1C[C@@H]2[C@H]([C@@H](O)C[C@@]3(C)[C@H]2CC[C@]3(O)C(=O)COC(=O)CCC(=O)O)[C@@]2(C)C=CC(=O)C=C12 [Methylprednisolone sodium succinate],percent Bodipy-positive cells,library stock concentration: 4 mM,8.59 ± 1.9%
CCC(=O)NC[C@H](Cc1ccc(OCCc2nc(-c3ccccc3)oc2C)cc1)N/C(C)=C\C(=O)c1ccc(C(F)(F)F)cc1,percent Bodipy-positive cells,[1],5.52 ± 3.7%
Fc1cc(-c2cccc3ncc(-c4cnn(C5CCNCC5)c4)nc23)cc(F)c1CN1CCOCC1,percent Bodipy-positive cells,[2],99.6 ± 0.57%
same,percent Bodipy-positive cells,[1],99.2 ± 1.2%
C[n+]1cc2c3c(ccc2c2ccc4cc5c(cc4c21)OCO5)OCO3 [Sanguinarine],percent Bodipy-positive cells,,100%
Nc1cc(-c2ccncc2)c[nH]c1=O,percent Bodipy-positive cells,[1],46 ± 15%
Nc1cc(-c2ccncc2)c[nH]c1=O [Amrinone],percent Bodipy-positive cells,,10.7 ± 2%
CCOC(=O)c1c(C)n(C)c2ccc(O)cc12 [Mecarbinate],percent Bodipy-positive cells,[2],17.9 ± 13%
same,percent Bodipy-positive cells,[1],25.6 ± 5.8%
COC(=O)/C=C/C(=O)N(O)CCCCNCc1ccc(COC(=O)Nc2cccc3ccccc23)cc1 [Methylstat],percent Bodipy-positive cells,library stock concentration: 80 uM,35.7 ± 5.9%
same,percent Bodipy-positive cells,library stock concentration: 400 uM,40 ± 1.8%
same,percent Bodipy-positive cells,library stock concentration: 2 mM,61.4 ± 11%
same,percent Bodipy-positive cells,[1],99 ± 1.5%
COc1ccc(C[C@@H]2c3cc(OC)c(OC)cc3CC[N@+]2(C)CCC(=O)OCCCCCOC(=O)CC[N@@+]2(C)CCc3cc(OC)c(OC)cc3[C@H]2Cc2ccc(OC)c(OC)c2)cc1OC [Cisatracurium Besylate],percent Bodipy-positive cells,[2],12.4 ± 9.7%
same,percent Bodipy-positive cells,[1],20.7 ± 1.2%
c1ccc2c(c1)CCCc1cc(NCCN3CCOCC3)nnc1-2,percent Bodipy-positive cells,,21.5 ± 0.24%
COC(=O)CCCCCCC1C(O)CC(O)C1CCC(O)CSc1ccccc1F (configuration not stated),percent Bodipy-positive cells,[3],8.09 ± 8.1%
CN(CCOc1ccc(CC2SC(=O)NC2=O)cc1)c1ccccn1 (configuration not stated) [Rosiglitazone (potassium salt)],percent Bodipy-positive cells,[3],5.71 ± 0.29%
CN(CCOc1ccc(CC2SC(=O)NC2=O)cc1)c1ccccn1 (configuration not stated) [Rosiglitazone],percent Bodipy-positive cells,[3],5.37 ± 0.15%
same,percent Bodipy-positive cells,[2],5.44 ± 0.57%
CN(CCOc1ccc(CC2SC(=O)NC2=O)cc1)c1ccccn1 (configuration not stated),percent Bodipy-positive cells,[1],14.3% and 6.07%
CCC(=O)OCC(=O)[C@@]1(OC(=O)CC)[C@H](C)C[C@H]2[C@H]3[C@H]([C@@H](O)C[C@@]21C)[C@@]1(C)C=CC(=O)C=C1C[C@H]3Cl [Alclometasone dipropionate],percent Bodipy-positive cells,,7.87 ± 0.71%
c1ccc2nc(C3=NCCN3)cnc2c1 [BU 239 hydrochloride],percent Bodipy-positive cells,[1],6.87 ± 0.21%
CN(C)CC[C@@H](c1ccc(Cl)cc1)c1ccccn1 [Chlorpheniramine (s) maleate],percent Bodipy-positive cells,[4],14 ± 0.18%
same,percent Bodipy-positive cells,[1],25.9 ± 5.3%
CN(C)CC[C@@H](c1ccc(Cl)cc1)c1ccccn1,percent Bodipy-positive cells,[1],38.5 ± 1.1%
CN(C)CC[C@@H](c1ccc(Cl)cc1)c1ccccn1 [Dexchlorpheniramine maleate],percent Bodipy-positive cells,[4],21.1 ± 5.6%
CCCCC[C@H](O)/C=C/[C@H]1[C@H](O)CC(=O)[C@@H]1C/C=C/CCCC(=O)O [5-trans Prostaglandin E2],percent Bodipy-positive cells,[3],19.5 ± 3.2%
Cn1c([N+](=O)[O-])cnc1COC(N)=O [Ronidazole],percent Bodipy-positive cells,,9.966 ± 0.096%
same,percent Bodipy-positive cells,[2],8.61 ± 2.2%
same,percent Bodipy-positive cells,[1],26.8% and 30.9%
COC(=O)c1ccc(O)c2nc3c(C=O)c(O)cc(O)c3nc12 [Lomofungin],percent Bodipy-positive cells,library stock concentration: 6.4 mM,15.1 ± 6.1%

# Given with bars between the fields: part of the list above.
smiles | measurement | setting | value
C[C@H]1C[C@@H]2[C@H]([C@@H](O)C[C@@]3(C)[C@H]2CC[C@]3(O)C(=O)COC(=O)CCC(=O)O)[C@@]2(C)C=CC(=O)C=C12 [Methylprednisolone sodium succinate] | percent Bodipy-positive cells | library stock concentration: 4 mM | 8.59 ± 1.9%
CCC(=O)NC[C@H](Cc1ccc(OCCc2nc(-c3ccccc3)oc2C)cc1)N/C(C)=C\C(=O)c1ccc(C(F)(F)F)cc1 | percent Bodipy-positive cells | [1] | 5.52 ± 3.7%
Fc1cc(-c2cccc3ncc(-c4cnn(C5CCNCC5)c4)nc23)cc(F)c1CN1CCOCC1 | percent Bodipy-positive cells | [2] | 99.6 ± 0.57%
